This is one part of the list.
Tests used:
Assay in all cases: log2 fold change, soluble protein after heating vs DMSO (PISA); higher = thermal stabilisation; K562 cells, 10 uM, 30 min; active = over 0.2 and 3.5 SD of the protein, either way, in both replicates (recomputed)
[1] = compound: COC1=CC=C(C=C1)CN2C=CC3=C2C=C(C=C3)C(=O)NO
In short: (§1)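 K562 cells at 2×10^6 cells/mL were given 10 μM compound for 30 min. Aliquots then went through 3 min of heating across 48°C-58°C, were pooled, and were extracted in PBS with 0.5% NP-40 at 4°C, and the supernatant after 21,000xg for 90 min was quantified by TMTpro 16plex LC-MS/MS with channel sums equalised. Thermal stability relative to control samples, from duplicates, is given as log2 fold change.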

Chains of the proteins cited; added tags and fusions are not shown. Lines headed by an entry give the natural chain unless they say otherwise; changes in a name come on top.
UniProt P62316, whole entry, looked up: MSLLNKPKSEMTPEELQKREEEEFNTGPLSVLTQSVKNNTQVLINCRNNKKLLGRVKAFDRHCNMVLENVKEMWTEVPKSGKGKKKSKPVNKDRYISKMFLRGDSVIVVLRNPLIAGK
UniProt Q96CW6: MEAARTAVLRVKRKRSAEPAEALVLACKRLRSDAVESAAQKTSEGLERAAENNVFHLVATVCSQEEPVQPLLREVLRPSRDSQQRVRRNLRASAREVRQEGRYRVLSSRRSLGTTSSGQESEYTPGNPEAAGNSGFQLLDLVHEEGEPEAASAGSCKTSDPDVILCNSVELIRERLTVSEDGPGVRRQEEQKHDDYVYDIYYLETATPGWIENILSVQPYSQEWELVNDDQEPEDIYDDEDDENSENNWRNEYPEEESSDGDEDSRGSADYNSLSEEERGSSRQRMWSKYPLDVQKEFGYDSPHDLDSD
UniProt Q13485: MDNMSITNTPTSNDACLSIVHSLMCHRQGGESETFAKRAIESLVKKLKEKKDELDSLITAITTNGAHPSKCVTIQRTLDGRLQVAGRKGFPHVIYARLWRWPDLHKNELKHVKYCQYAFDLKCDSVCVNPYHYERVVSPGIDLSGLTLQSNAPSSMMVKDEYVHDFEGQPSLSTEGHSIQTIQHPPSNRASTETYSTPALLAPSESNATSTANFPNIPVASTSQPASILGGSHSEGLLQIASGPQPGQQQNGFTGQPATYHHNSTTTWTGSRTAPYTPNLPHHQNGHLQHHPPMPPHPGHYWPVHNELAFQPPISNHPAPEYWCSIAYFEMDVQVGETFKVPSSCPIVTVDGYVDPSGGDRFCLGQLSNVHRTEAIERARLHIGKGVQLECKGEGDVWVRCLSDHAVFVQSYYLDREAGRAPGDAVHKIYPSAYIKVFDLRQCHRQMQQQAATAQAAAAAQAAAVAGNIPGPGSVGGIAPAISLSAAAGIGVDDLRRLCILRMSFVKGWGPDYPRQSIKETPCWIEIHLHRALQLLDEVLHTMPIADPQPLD
UniProt Q8IY18: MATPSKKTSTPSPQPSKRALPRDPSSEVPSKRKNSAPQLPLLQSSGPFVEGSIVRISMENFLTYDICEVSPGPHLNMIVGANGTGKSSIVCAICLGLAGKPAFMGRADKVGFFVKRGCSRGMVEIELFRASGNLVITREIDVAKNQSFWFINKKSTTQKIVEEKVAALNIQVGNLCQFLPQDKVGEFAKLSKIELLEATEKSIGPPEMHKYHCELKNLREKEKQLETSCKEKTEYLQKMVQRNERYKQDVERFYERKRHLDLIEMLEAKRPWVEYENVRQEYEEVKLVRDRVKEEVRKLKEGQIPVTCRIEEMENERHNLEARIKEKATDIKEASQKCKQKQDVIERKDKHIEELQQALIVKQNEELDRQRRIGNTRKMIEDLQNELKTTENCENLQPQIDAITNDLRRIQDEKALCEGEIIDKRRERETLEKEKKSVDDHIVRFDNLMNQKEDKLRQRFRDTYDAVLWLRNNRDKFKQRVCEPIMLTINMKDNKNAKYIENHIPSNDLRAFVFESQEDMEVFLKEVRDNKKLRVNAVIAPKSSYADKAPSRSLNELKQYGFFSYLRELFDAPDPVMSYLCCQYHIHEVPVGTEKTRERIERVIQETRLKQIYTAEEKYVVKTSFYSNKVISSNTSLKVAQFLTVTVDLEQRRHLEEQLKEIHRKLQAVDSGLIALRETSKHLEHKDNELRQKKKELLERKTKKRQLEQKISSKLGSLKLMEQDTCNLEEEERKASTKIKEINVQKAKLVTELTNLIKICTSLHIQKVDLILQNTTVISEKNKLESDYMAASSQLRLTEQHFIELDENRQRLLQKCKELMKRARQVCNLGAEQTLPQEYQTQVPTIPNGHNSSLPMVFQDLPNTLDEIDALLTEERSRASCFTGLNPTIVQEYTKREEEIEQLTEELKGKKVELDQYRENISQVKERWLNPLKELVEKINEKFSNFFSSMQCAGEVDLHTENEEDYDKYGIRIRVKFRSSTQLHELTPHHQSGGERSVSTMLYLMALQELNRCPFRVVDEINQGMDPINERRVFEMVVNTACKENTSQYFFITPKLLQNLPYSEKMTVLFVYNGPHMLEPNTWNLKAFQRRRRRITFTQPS
UniProt Q8WU79: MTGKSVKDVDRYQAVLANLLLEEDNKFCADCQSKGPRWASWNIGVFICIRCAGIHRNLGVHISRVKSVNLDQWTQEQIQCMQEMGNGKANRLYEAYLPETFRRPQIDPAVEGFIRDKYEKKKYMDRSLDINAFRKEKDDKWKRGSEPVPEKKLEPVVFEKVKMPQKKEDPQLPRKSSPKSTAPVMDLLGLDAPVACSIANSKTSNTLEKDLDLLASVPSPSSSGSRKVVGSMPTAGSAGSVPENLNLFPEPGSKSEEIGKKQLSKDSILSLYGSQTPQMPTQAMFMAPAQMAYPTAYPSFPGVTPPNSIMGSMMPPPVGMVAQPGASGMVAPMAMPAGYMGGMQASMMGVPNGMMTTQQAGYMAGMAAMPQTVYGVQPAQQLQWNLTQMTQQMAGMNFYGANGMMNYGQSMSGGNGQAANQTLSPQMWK
UniProt Q15599: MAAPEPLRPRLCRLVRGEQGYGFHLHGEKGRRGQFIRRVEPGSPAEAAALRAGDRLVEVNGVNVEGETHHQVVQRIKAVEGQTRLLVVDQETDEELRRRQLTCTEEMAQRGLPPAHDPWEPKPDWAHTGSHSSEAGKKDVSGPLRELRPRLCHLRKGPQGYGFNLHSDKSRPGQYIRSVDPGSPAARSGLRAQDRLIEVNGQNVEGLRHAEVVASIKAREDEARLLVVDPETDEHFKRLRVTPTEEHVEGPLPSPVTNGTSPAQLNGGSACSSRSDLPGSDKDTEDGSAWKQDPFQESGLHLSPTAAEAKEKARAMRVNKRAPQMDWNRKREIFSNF
UniProt O15198: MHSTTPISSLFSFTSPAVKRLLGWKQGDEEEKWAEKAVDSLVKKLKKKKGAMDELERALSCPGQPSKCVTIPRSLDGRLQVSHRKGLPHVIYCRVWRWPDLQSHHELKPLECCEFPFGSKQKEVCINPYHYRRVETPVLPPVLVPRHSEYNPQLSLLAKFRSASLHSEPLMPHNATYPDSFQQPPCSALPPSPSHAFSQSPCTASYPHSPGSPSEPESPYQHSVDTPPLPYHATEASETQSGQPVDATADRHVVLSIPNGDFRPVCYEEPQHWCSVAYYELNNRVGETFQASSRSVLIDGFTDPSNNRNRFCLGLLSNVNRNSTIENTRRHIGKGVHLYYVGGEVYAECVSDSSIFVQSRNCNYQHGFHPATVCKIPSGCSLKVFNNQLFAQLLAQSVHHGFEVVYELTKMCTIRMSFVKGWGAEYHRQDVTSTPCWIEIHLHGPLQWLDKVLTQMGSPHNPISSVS
UniProt O95149, whole entry, looked up: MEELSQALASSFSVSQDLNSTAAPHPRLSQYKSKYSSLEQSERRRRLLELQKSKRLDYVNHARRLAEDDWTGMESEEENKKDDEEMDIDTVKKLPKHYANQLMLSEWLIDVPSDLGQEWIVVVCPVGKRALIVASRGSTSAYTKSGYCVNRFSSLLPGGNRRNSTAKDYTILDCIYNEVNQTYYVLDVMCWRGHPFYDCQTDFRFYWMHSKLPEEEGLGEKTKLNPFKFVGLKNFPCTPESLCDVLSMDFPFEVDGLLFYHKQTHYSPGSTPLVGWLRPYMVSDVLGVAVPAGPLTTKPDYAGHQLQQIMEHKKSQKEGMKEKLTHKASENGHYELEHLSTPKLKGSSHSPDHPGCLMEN
UniProt Q9BX66: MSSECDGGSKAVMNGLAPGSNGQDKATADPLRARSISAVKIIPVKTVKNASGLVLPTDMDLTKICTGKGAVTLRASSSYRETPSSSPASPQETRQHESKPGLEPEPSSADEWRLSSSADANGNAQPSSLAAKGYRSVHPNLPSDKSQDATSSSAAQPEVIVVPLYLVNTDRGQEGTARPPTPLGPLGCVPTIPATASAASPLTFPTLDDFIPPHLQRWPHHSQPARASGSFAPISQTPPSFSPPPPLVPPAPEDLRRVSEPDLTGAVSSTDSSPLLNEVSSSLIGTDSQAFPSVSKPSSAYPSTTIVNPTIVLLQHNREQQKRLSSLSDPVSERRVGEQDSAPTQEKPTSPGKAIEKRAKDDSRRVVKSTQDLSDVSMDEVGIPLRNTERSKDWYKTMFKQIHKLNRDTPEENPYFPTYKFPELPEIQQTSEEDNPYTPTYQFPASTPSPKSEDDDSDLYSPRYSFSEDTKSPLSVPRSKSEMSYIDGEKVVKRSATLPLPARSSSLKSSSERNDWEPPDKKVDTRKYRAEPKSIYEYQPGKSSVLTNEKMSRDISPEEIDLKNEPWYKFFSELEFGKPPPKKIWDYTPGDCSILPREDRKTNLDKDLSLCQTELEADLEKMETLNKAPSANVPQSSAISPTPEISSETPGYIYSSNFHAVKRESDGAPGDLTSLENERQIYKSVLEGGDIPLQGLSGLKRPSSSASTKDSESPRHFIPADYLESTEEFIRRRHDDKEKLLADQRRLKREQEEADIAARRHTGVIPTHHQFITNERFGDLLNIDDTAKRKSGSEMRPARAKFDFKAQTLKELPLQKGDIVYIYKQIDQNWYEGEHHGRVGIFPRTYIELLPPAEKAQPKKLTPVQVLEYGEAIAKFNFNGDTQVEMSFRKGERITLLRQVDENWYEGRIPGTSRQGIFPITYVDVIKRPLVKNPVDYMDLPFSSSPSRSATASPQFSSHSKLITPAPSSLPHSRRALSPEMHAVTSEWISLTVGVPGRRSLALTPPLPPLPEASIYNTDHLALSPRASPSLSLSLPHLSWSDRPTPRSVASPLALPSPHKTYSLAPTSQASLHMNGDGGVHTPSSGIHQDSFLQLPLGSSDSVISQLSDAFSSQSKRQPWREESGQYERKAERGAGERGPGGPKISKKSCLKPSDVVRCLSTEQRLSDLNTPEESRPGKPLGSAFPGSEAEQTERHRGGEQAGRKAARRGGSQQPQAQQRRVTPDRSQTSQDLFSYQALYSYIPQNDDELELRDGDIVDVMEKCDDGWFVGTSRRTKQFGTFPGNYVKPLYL
UniProt O60749: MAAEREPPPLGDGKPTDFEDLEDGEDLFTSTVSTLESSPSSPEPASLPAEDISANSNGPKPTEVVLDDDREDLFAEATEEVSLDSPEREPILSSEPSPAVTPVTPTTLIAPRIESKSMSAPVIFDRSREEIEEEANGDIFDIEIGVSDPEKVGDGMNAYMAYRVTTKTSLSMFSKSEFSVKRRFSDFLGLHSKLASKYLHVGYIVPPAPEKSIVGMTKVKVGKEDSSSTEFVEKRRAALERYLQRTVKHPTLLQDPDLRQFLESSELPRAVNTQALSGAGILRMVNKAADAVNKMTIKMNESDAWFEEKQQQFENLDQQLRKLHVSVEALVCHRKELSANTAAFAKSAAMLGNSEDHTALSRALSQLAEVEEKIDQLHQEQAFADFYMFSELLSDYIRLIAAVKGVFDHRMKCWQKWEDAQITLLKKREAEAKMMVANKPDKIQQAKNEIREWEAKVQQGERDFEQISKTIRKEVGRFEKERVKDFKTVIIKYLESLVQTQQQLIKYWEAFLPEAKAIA
UniProt Q9H4L7: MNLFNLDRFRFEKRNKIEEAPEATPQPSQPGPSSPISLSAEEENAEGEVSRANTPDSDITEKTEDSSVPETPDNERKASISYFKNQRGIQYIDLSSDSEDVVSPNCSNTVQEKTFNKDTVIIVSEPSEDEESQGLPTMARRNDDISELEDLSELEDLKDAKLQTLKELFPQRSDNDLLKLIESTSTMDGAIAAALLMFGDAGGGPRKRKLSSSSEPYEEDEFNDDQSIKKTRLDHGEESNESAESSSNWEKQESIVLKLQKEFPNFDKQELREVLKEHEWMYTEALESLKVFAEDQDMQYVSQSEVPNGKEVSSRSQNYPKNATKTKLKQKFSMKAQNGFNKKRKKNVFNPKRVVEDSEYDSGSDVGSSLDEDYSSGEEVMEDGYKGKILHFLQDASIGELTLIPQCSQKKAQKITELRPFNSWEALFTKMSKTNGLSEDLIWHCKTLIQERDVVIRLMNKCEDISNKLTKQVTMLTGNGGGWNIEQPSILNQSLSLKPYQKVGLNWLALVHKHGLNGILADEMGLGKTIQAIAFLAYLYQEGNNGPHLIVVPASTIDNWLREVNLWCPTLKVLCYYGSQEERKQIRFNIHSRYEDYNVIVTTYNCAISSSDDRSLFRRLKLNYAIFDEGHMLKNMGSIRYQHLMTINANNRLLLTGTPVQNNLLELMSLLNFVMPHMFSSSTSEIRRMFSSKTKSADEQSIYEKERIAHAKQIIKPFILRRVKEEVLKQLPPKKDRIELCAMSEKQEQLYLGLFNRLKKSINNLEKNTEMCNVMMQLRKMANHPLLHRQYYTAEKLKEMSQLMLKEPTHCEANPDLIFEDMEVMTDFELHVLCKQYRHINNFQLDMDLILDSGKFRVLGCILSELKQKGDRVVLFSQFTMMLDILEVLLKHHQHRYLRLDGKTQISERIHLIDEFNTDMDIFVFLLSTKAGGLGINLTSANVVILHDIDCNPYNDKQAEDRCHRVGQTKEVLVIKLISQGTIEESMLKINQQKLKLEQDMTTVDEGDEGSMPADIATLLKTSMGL
UniProt P62308, whole entry, looked up: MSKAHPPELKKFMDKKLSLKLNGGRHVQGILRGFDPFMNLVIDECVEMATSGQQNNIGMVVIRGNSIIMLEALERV

filanesib = compound: CON(C)C(=O)N1N=C(c2cc(F)ccc2F)S[C@@]1(CCCN)c1ccccc1 [filanesib]
In short: as §1

zotarolimus = compound: CO[C@H]1C[C@@H]2CC[C@@H](C)[C@@](O)(O2)C(=O)C(=O)N2CCCC[C@H]2C(=O)O[C@H]([C@H](C)C[C@@H]2CC[C@H](n3cnnn3)[C@H](OC)C2)CC(=O)[C@H](C)/C=C(\C)[C@@H](O)[C@@H](OC)C(=O)[C@H](C)C[C@H](C)/C=C/C=C/C=C/1C [zotarolimus]
In short: as §1

idasanutlin = compound: COc1cc(C(=O)O)ccc1NC(=O)[C@@H]1N[C@@H](CC(C)(C)C)[C@](C#N)(c2ccc(Cl)cc2F)[C@H]1c1cccc(Cl)c1F [idasanutlin]
In short: as §1

alisertib = compound: COc1cc(Nc2ncc3c(n2)-c2ccc(Cl)cc2C(c2c(F)cccc2OC)=NC3)ccc1C(=O)O [alisertib]
In short: as §1

[2] = compound: COc1cc2nc(-c3cc(F)ccc3O)nc(N[C@@H]3CNC[C@H]3C(C)(C)O)c2cc1OC
In short: as §1

gefitinib = compound: COc1cc2ncnc(Nc3ccc(F)c(Cl)c3)c2cc1OCCCN1CCOCC1 [gefitinib]
In short: as §1

[3] = compound: COc1cccc2cc(-c3nc([C@H]4CC[C@H](C(=O)O)CC4)n4ncnc(N)c34)[nH]c12
In short: as §1

lapatinib = compound: CS(=O)(=O)CCNCc1ccc(-c2ccc3ncnc(Nc4ccc(OCc5cccc(F)c5)c(Cl)c4)c3c2)o1 [lapatinib]
In short: as §1

pictilisib = compound: CS(=O)(=O)N1CCN(Cc2cc3nc(-c4cccc5[nH]ncc45)nc(N4CCOCC4)c3s2)CC1 [pictilisib]
In short: as §1

Target | log2 fold change [1] | log2 fold change (filanesib) | log2 fold change (zotarolimus) | log2 fold change (idasanutlin) | log2 fold change (alisertib) | log2 fold change [2] | log2 fold change (gefitinib) | log2 fold change [3] | log2 fold change (lapatinib) | log2 fold change (pictilisib)
SMCHD1 (UniProt A6NHR9) | inactive: 0.043 | inactive: 0.008 | inactive: 0.123 | inactive: 0.062 | inactive: -0.005 | inactive: -0.179 | inactive: -0.078 | inactive: -0.096 | inactive: 0.002 | inactive: 0.035
SMAP1 isoform 2 (UniProt Q8IYB5) | inactive: 0.19 | inactive: -0.046 | inactive: -0.032 | inactive: -0.029 | inactive: -0.062 | inactive: 0.065 | inactive: 0.02 | inactive: -0.056 | inactive: -0.058 | inactive: -0.041
SMC1A (UniProt Q14683) | inactive: 0.072 | inactive: 0.037 | inactive: 0.014 | inactive: 0.001 | inactive: -0.031 | inactive: -0.007 | inactive: 0.005 | inactive: 0.028 | inactive: -0.006 | inactive: 0.053
SMPD4 isoform 4 (UniProt Q9NXE4) | inactive: 0.051 | inactive: -0.223 | inactive: 0.011 | inactive: -0.049 | inactive: 0.145 | inactive: -0.109 | inactive: 0.02 | inactive: -0.043 | inactive: -0.013 | inactive: -0.034
SOX5 (UniProt P35711) | inactive: -0.087 | inactive: -0.08 | inactive: -0.058 | inactive: 0.006 | inactive: -0.089 | inactive: -0.055 | inactive: -0.012 | inactive: 0.105 | inactive: 0.051 | –
SNRPB2 (UniProt P08579) | inactive: -0.018 | inactive: 0.057 | inactive: -0.035 | inactive: 0.021 | inactive: -0.121 | inactive: 0.047 | inactive: -0.021 | inactive: -0.006 | inactive: -0.002 | inactive: 0.006
SORT1 (UniProt Q99523) | inactive: 0.058 | inactive: -0.066 | inactive: 0.002 | inactive: 0.008 | inactive: -0.016 | inactive: -0.032 | inactive: 0.028 | inactive: 0.056 | inactive: 0.022 | inactive: 0.003
SNRPD2 (UniProt P62316) | inactive: 0.004 | inactive: 0.06 | inactive: -0.041 | inactive: 0.073 | inactive: -0.096 | inactive: 0.037 | inactive: -0.006 | inactive: -0.031 | inactive: 0 | inactive: -0.004
SMPD2 (UniProt O60906) | inactive: -0.123 | inactive: -0.052 | inactive: -0.035 | inactive: 0.001 | inactive: -0.008 | inactive: -0.17 | inactive: 0.064 | inactive: 0.102 | inactive: 0.052 | inactive: -0.023
SP100 isoform 4 (UniProt P23497) | inactive: 0.05 | inactive: 0 | inactive: 0.013 | inactive: -0.022 | inactive: -0.026 | active: -0.242 | inactive: 0.024 | inactive: 0.036 | inactive: 0.188 | inactive: 0.013
SLC7A6OS (UniProt Q96CW6) | inactive: -0.085 | inactive: 0.006 | inactive: 0.046 | inactive: -0.034 | inactive: -0.073 | inactive: -0.072 | inactive: 0.007 | inactive: -0.037 | inactive: 0.038 | inactive: 0.019
SMYD5 (UniProt Q6GMV2) | inactive: -0.014 | inactive: -0.045 | inactive: 0.028 | inactive: -0.058 | inactive: -0.067 | inactive: 0.032 | inactive: -0.039 | inactive: -0.008 | inactive: -0.038 | inactive: -0.009
SMAD4 (UniProt Q13485) | inactive: 0.06 | inactive: -0.004 | inactive: 0.003 | inactive: -0.064 | inactive: -0.029 | inactive: 0.005 | inactive: 0 | inactive: 0.006 | inactive: -0.003 | inactive: 0.112
SMC5 (UniProt Q8IY18) | inactive: -0.055 | inactive: 0.009 | inactive: -0.032 | inactive: -0.081 | inactive: 0.047 | inactive: 0.009 | inactive: 0.034 | inactive: 0.028 | inactive: 0.018 | inactive: 0.024
SOD2 (UniProt P04179) | inactive: 0.041 | inactive: -0.023 | inactive: -0.019 | inactive: 0.017 | inactive: 0.022 | inactive: -0.003 | inactive: 0 | inactive: -0.007 | inactive: -0.024 | inactive: -0.059
SMAP2 (UniProt Q8WU79) | inactive: -0.029 | inactive: 0.048 | inactive: 0.045 | inactive: -0.039 | inactive: 0.11 | active: 0.247 | inactive: 0.043 | inactive: -0.072 | inactive: -0.009 | inactive: -0.015
SLC9A3R2 (UniProt Q15599) | inactive: -0.03 | inactive: 0.035 | inactive: -0.036 | inactive: 0.023 | inactive: -0.097 | inactive: -0.06 | inactive: 0.022 | inactive: 0.02 | inactive: 0.059 | inactive: -0.047
SMAD9 (UniProt O15198) | inactive: -0.002 | inactive: 0.009 | inactive: -0.033 | inactive: -0.132 | inactive: -0.014 | inactive: -0.012 | inactive: 0.066 | inactive: -0.005 | inactive: 0.051 | inactive: 0.148
SNRPD1 (UniProt P62314) | inactive: -0.074 | inactive: 0.151 | inactive: -0.062 | inactive: 0.08 | inactive: -0.136 | inactive: 0.084 | inactive: -0.039 | inactive: 0.037 | inactive: -0.027 | inactive: 0.062
SNCG (UniProt O76070) | inactive: -0.008 | inactive: -0.049 | inactive: -0.034 | inactive: -0.021 | inactive: -0.06 | inactive: -0.037 | inactive: -0.012 | inactive: 0.022 | inactive: 0.013 | inactive: -0.006
SNRPF (UniProt P62306) | inactive: 0.05 | inactive: 0.085 | inactive: -0.014 | inactive: 0.108 | inactive: -0.097 | inactive: -0.167 | inactive: -0.006 | inactive: -0.111 | inactive: 0.1 | inactive: -0.093
SMIM26, A0A096LP01 | inactive: -0.073 | inactive: -0.098 | inactive: -0.092 | inactive: -0.109 | inactive: -0.084 | inactive: 0.081 | inactive: -0.017 | inactive: 0.031 | inactive: 0.134 | inactive: -0.105
SNUPN (UniProt O95149) | inactive: 0.001 | inactive: -0.09 | inactive: -0.007 | inactive: 0.05 | inactive: -0.013 | inactive: -0.05 | inactive: 0.014 | inactive: 0.005 | inactive: 0.019 | inactive: -0.021
SORBS1 isoform 12 (UniProt Q9BX66) | inactive: -0.053 | inactive: -0.033 | inactive: 0.006 | inactive: -0.007 | inactive: 0.016 | inactive: 0.044 | inactive: 0.027 | inactive: -0.02 | inactive: 0.037 | inactive: 0.003
SNX2 (UniProt O60749) | inactive: 0.011 | inactive: -0.156 | inactive: 0.037 | inactive: 0 | inactive: 0.013 | inactive: -0.101 | inactive: -0.105 | inactive: 0.029 | inactive: 0.001 | inactive: -0.104
SLC9A6 isoform 2 (UniProt Q92581) | inactive: -0.077 | inactive: -0.051 | inactive: -0.062 | inactive: -0.011 | inactive: -0.013 | inactive: 0.062 | inactive: -0.017 | inactive: 0.071 | inactive: 0.003 | inactive: 0.129
SNX1 (UniProt Q13596) | inactive: -0.021 | inactive: -0.182 | inactive: 0.042 | inactive: -0.013 | inactive: -0.003 | inactive: -0.063 | inactive: -0.165 | inactive: 0 | inactive: -0.027 | inactive: -0.205
SMN1 (UniProt Q16637) | inactive: -0.006 | inactive: 0.284 | inactive: 0.059 | inactive: 0.208 | inactive: -0.168 | inactive: -0.037 | inactive: -0.01 | inactive: -0.061 | inactive: 0.029 | inactive: -0.087
SMARCAD1 isoform 2 (UniProt Q9H4L7) | inactive: 0.027 | inactive: -0.098 | inactive: 0.028 | inactive: -0.073 | inactive: -0.026 | inactive: 0.06 | inactive: -0.062 | inactive: -0.004 | inactive: 0.026 | inactive: 0.07
SNRPG (UniProt P62308) | inactive: -0.033 | inactive: 0.003 | inactive: -0.131 | inactive: 0.088 | inactive: -0.023 | inactive: 0.09 | inactive: 0.045 | inactive: 0.024 | inactive: -0.014 | inactive: 0.003

Reprinted at random: 2 entries already listed
Target | log2 fold change [1] | log2 fold change (filanesib) | log2 fold change (zotarolimus) | log2 fold change (idasanutlin) | log2 fold change (alisertib) | log2 fold change [2] | log2 fold change (gefitinib) | log2 fold change [3] | log2 fold change (lapatinib) | log2 fold change (pictilisib)
SNRPF (UniProt P62306) | inactive: 0.05 | inactive: 0.085 | inactive: -0.014 | inactive: 0.108 | inactive: -0.097 | inactive: -0.167 | inactive: -0.006 | inactive: -0.111 | inactive: 0.1 | inactive: -0.093
SNX2 (UniProt O60749) | inactive: 0.011 | inactive: -0.156 | inactive: 0.037 | inactive: 0 | inactive: 0.013 | inactive: -0.101 | inactive: -0.105 | inactive: 0.029 | inactive: 0.001 | inactive: -0.104
